The results in this text go back to PMC10149453, “Three segment ligation of a 104 kDa multi-domain protein by SrtA and OaAEP1” (Journal of Biomolecular Nmr, 2022).

Amino acid sequences for entries named in this document (tags omitted). A change or cut given only in a name is not applied to a line headed by its entry.
UniProt P58301: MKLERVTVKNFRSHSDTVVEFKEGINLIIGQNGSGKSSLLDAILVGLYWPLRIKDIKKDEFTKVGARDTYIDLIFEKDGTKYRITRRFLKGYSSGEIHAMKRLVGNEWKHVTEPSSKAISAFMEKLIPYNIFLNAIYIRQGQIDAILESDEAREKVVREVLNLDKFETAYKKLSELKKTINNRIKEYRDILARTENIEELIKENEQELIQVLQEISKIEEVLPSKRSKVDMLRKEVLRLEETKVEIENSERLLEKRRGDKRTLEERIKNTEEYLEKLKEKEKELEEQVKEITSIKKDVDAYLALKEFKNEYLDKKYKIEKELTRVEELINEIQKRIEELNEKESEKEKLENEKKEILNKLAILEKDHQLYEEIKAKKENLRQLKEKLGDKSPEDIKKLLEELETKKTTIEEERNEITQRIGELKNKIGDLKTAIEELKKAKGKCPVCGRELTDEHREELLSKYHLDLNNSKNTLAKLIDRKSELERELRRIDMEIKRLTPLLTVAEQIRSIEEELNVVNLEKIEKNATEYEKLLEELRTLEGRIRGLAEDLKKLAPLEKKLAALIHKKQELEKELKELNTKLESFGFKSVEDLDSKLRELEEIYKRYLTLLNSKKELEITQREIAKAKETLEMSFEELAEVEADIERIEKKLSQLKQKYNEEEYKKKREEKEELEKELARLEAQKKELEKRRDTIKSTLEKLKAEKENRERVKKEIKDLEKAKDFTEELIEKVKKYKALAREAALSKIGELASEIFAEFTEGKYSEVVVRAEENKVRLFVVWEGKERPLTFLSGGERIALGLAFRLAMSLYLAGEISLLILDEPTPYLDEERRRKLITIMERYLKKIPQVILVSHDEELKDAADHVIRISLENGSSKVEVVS

This assay addresses (MK-6HisTEV) Pf Rad50 C-Terminal coiled-coil-NBD (aa 503 – 882) (P. furiosus) (UniProt P58301). The experiment in a line: co-purification on a Ni affinity column after co-expression; Ncc (no tag) and (6HisTEV)ccC co-expressed in E. coli; purified through a HisTrap HP column by the 6His tag of ccC.

These are yes or no findings as the source states them, for the method shown. Some entries that bind do so weakly or less than the wild type.

On to “Pf Rad50 N-terminal NBD-coiled-coil (aa 1 – 386)-NAL (from UniProt P58301 1-386) (domain or fragment)”, for which the binding entry is recorded as “binds”.
